From patent US9023987B2, “Cell-permeable peptide” (Seoul National University R&DB Foundation, priority 2010, dated 2015)
Not every detail of the peptide structures is certain; ends, links or a residue may be inferred. Ends that are not written are not given here.

By UniProt entry, the sequences of proteins in these tests, tags left out.
UniProt Q9HCE7, whole entry: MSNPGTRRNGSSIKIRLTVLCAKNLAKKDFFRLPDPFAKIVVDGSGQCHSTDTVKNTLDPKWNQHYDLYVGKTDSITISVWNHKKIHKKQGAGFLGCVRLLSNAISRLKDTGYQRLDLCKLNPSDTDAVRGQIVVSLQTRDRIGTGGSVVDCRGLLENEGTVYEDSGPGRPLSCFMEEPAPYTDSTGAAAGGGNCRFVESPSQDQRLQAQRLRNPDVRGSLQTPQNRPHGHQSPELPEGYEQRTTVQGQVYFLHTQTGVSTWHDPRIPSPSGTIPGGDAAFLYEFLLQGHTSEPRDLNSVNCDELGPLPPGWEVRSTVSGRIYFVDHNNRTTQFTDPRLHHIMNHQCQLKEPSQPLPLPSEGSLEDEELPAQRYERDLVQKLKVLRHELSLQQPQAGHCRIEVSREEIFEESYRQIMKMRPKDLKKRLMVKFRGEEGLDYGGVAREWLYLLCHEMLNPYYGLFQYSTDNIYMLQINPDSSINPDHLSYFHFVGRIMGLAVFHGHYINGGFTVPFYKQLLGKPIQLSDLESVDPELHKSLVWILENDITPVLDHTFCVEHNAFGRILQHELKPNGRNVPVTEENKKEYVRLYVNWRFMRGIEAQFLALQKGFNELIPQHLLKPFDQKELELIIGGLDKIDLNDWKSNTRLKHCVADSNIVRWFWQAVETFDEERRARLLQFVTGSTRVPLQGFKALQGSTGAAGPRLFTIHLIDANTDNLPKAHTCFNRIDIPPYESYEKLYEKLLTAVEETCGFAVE

How the values were obtained:
[1] = target: T1, human-derived Smurf1 protein (Homo sapiens, UniProt Q9HCE7); experiment: Affinity to Smurf1 by surface plasmon resonance (BIACORE T100); assay type: binding; details: 10 mM analyte over Smurf1 coupled to CM5 chip; FIG. 2A
T1 construct: purchased Origene Technologies (Rockville, Md., USA)
Description: In order to confirm the affinity between cell permeable peptide-bone differentiation inducing sequence conjugate and Smurf1 by a chemical method, a human-derived Smurf1 protein acting as a ligand in the present experiment was purchased from Origene Technologies (Rockville, Md., USA). The protein ([…]) was coupled to a gold coated surface of a CM5 chip (BIACORE AB, Sweden) on which amino groups are bounded using an EDC/NHS kit (BIACORE AB, Sweden). (Instead of this experimental method, ‘Immobilization’ integrated into the BIACORE® T100 (BIACORE AB, Sweden) software used by the present inventors may be used). In this case, in order to find a suitable pH condition at which the protein may bind to the amino group in the CM5 chip, a method called ‘pH scouting’ was performed, thereby finding a pH condition. As a method of ‘pH scouting’, a method integrated in the BIACORE® T100 (BIACORE AB, Sweden) software used by the present inventors may be used. […]

Smurf1 = target: T2, Smurf1 (Homo sapiens, UniProt Q9HCE7); experiment: Immuno-precipitation and western blot of Smad1/5/8 ubiquitination in hMSC; assay type: cell-based; details: hMSC pre-treated with MG132, 10 mM peptide, 1 hour 30 minutes; compared with MG132 only; FIG. 2B
T2 construct: endogenous in cells; host or cells: human mesenchymal stem cells (hMSC)
Source text: In order to confirm presence or absence of the active site of the cell permeable peptide-bone differentiation inducing sequence conjugate synthesized by the method in Example 1 for binding to Smurf1, an immuno-precipitation method and a western blot assay method were used. The present experimental method is applied in order to confirm that the cell permeable peptide-bone differentiation inducing sequence conjugate synthesized by the method in Example 1 may suppress a bioactivity of Smurf1 decomposing Smd1/5/8 as one of the E3 ligases playing a role in ubiquitin ligation.
1×10^6 human mesenchymal stem cells (hMSC) used as a model cell in the present experiment were plated in each dish and then cultured in a general medium for 20 hours (overnight incubation). Then the cells was cultured in an hMSC basal medium (MSCBM™, LONZA, USA) containing 0.5% fetal bovine serum (FBS, GIBCO, USA) for 20 hours (overnight starvation). After overnight starvation in 0.5% MSCBM™, […] MG132 (MG132; proteasome inhibitor, Merck, USA) was added to the same medium to allow the cells to be pre-treated for 2 hours. Thereafter, the cell permeable peptide-bone differentiation inducing sequence conjugate synthesized by the method in Example 1 and peptides of Comparative Examples 1 and 2 were injected into each dish at a concentration of […], respectively, and cultured for 1 hour 30 minutes. […]

[2] = target: T1, human-derived Smurf1 protein; experiment: Slot-blot assay of binding to Smurf1
Source text: In order to confirm presence or absence of the active site of the cell permeable peptide-bone differentiation inducing sequence conjugate synthesized by the method in Example 1 for binding to Smurf1 and binding degrees according to the concentration, a slot blot assay were used. This experimental method is a molecular biological method of positioning a protein on a membrane and sucking the protein in the other side to strongly attach the protein on a surface of the membrane, directly positioning a material to be confirm an interaction with the attached protein and culturing for a predetermine time to induce the binding, and blotting them using antibodies to confirm the interaction (affinity) between the protein and the material through a difference of each Dot.
1 μg of human-derived Smurf1 protein was input […] per well using a slot blot device (Hoefer, Pharmacia Biotech, USA) and blotted on a predetermined position on a nitrocellulose membrane (2 μm, Pall, USA) in a vacuum state. After blotting, the nitrocellulose membrane was blocked with phosphate buffer solution containing 0.5% Tween® 20 at room temperature for 30 minutes, and then completely dried. […]

[3] = tested on: human mesenchymal stem cells (hMSC); experiment: Cell differentiation ability by calcein staining; assay type: cell-based; design: dose or concentration left out as unconfirmed; details: hard tissue-forming medium with calcein, 14 days, compared with PBS; FIG. 4A g-i
Description: In order to confirm cell differentiation ability of the cell permeable peptide-bone differentiation inducing sequence conjugate, human mesenchymal stem cells (hMSC) were seeded in each well of a 4-well chamber slide at 5×10^3/well, and then incubated in a general medium for 20 hours (overnight) for cell stabilization. The cells were treated with the cell permeable peptide-bone differentiation inducing sequence conjugate synthesized from Example 1 and the bone differentiation inducing sequence of Comparative Example 2 of […] for each, and then incubated in a hard tissue forming medium containing calcein (calcium staining, green) for 14 days. The composition of the hard tissue-forming medium consisted of an MSCBM medium containing 15% FBS (fetal bovine serum), […] of L-ascorbic acid, 10^−7 M dexamethasone, 1% antibiotic-antimycotic solution, and 10 mM beta-glycerol phosphate. After completion of the incubation, the medium was removed, and then the cells were washed with phosphate buffer solution (PBS) twice. The cells washed with the phosphate buffer solution were fixed with 10% NBF (neutral buffered formalin), and then the nucleus was stained (Hoechst 33342, blue). […]

ALP, OCN, and RUNX2 = experiment: Bone differentiation marker genes by quantitative real-time PCR and electrophoresis; assay type: cell-based, human
Description: In order to confirm cell differentiation ability of the cell permeable peptide-bone differentiation inducing sequence conjugate through bone tissue differentiation marker genes, human mesenchymal stem cells (hMSC) were seeded in each well of a 6 cm-dish at 1×10^5/well, and then incubated in a general medium for 20 hours (overnight) for cell stabilization. After 20 hours of incubation, the cells were treated with the cell permeable peptide-bone differentiation inducing sequence conjugate and 10 μm of the bone differentiation inducing sequence of Comparative Example 2 for 72 hours.
After that, the entire RNA was separated from the treated cells, using a Trizol® reagent (reagent for isolating RNA from cell and tissue samples) (Invitrogen Life Technologies, USA), according to the manufacturer's instructions, and the amount and purity of the entire RNA were measured by the spectrophotometer. […]
In order to carry out the quantitative real-time PCR, cDNA to be used as a template and primers were mixed, like in RT-PCR, and then 10 μl of SYBR® Green Premix Ex Taq (TaKaRa, JAPAN) was mixed therewith to prepare a reaction material. […] The CT value of each gene was […] the CT value for housekeeping GAPDH gene and the value calculated based on the negative control was taken, so that comparison in the degree of mRNA expression was conducted (Shin et al., (2007) Plant J. 49, 981-994).

[4] = tested on: Smad1/5/8 phosphorylation, RUNX2; experiment: Western blot of signal transduction proteins in cytoplasmic and nuclear fractions; assay type: cell-based, human; details: 10 μm, 1.5 hours, hMSC, compared with PBS; FIG. 4D
Description: In order to confirm cell differentiation ability of the cell permeable peptide-bone differentiation inducing sequence conjugate, using proteins serving an important role in signal transduction pathways in the cytoplasmic fraction and the nuclear fraction, human mesenchymal stem cells (hMSC) were seeded in each well of a 10 cm-dish at 1×10^6/well, and then incubated in a general medium for 20 hours (overnight) for cell stabilization. After 20 hours of the incubation, the cells were treated with the cell permeable peptide-bone differentiation inducing sequence conjugate and the bone differentiation inducing sequence of Comparative Example 2 of 10 μm for each for 1.5 hours.
After that, in order to compare the expression degree of intercellular protein, in each of the cells treated with the cell permeable peptide-bone differentiation inducing sequence conjugate of Example 1 and the bone differentiation inducing sequence of Comparative Example 2, cytoplasm and nucleus were separated using NE-PER nuclear and cytoplasmic extraction reagents according to the manufacturer's instructions (Pierce, USA). The protein in the hMSC lysis solution containing the separated cytoplasm and nucleus was determined by Bradford's assay, and then subjected to electrophoresis using 10% polyacrylamide gel at 120 volts for 4 hours. […]

**Q.** Which results are given for “GAPPPADSAP-NH2 [Comparative Example 2, GAPPPADSAP, reference compound]”?
**A.** affinity to Smurf1 [1]: 750 RU; ubiquitination of Smad1/5/8 (ubiquitin antibody after Smad1/5/8 immuno-precipitation) (Smurf1): This phenomenon was equally indicated; dot size according to the concentration ([2]; 0.1, 1, 10, and 100 mM, 4° C., 20 hours, FIG. 2D): a dot size was increased as the concentration was increased from 0.1 mM to 100 mM; binding to Smurf1 protein detected as dot ([2]; biotinylated domains, slot blot, FIG. 2C): bound to each other to thereby be detected as dot; calcein staining degree of phosphorylated calcium [3]: the staining degree of phosphorylated calcium was similar; expression values of ALP, OCN, and RUNX2 (quantitative real-time PCR) compared with PBS (ALP, OCN, and RUNX2; 10 μm, 72 hours treatment (result text: 14 days), FIG. 4B): almost similar expression values; bands of ALP, OCN, and RUNX2 PCR products (electrophoresis) (ALP, OCN, and RUNX2; EtBr agarose gel, compared with PBS, FIG. 4C): almost similar; RUNX2 in the nucleus (western blot) [4]: barely increased; phosphorylation of Smad1/5/8 (western blot) [4]: scarcely occurs
